Source: PubChem BioAssay AID493014 (National Center for Advancing Translational Sciences (NCATS), 2011)
About 170 (0.05%) of roughly 340,000 compounds were called active. The inconclusive results got no clear call from the source; some entries with a clear call stand among them for comparison. Calls follow the shape of the dose curve; as a rule, active = well fitted inhibition curve with a large enough effect in the signal ratio, with a control signal flat (not every such curve was filed as active); inconclusive = small, poorly fitted or top-dose-only effect, or effect the other way, or a change in a side signal; inactive = flat fitted curve, though single readings scatter; the % refers to the signal ratio. Where the call is inconclusive, the potency comes from a doubtful curve fit.
Potency is read from the fitted curve at half-maximal effect.

Experiment: qHTS Assay to Find Inhibitors of Chronic Active B-Cell Receptor Signaling;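 as to activity change, negative = inhibition: plate controls were basal doxycycline-induced cells for no effect and cells given 10 µM MG132 for full effect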
Details: ABC-DLBCL IkBa-CBG/CBR reporter, luminescence ratio (green luciferase fused to IkBa over red control in TMD8 lymphoma cells), 4 h; activity change, negative = inhibition: at 46.1 µM (top of the series)
Outline: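 TMD8 human ABC-DLBCL cells with doxycycline-inducible IκBα–green luciferase fusion and unfused red luciferase, in 0.5% FBS medium; compounds up to 46 uM, 4 h at 37C. Green/red luminescence ratio, filter-overlap corrected, fitted to concentration-response curves.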
For `O=C(CSc1nc(O)c(Cc2ccccc2)c(=O)[nH]1)Nc1ccccc1`, the activity change, negative = inhibition was inconclusive: -1.8%.
In the case of `O=C(N/N=C/c1ccc(F)cc1)c1cc(-c2ccco2)nc2ccccc12`, the “activity change, negative = inhibition” value is reported as inactive: 5.93%.
For `COc1ccc(Cl)cc1NC(=O)CNc1ccc(F)cc1C`, the Potency was inconclusive: 20.6 µM [falling, partial curve].
With `O=C(Nc1cccc(C(F)(F)F)c1)c1cc(-c2ccc(F)cc2)on1` the Potency was inconclusive: 20.6 µM [falling, partial curve].
In the case of `CCCCOc1ccc(Br)cc1CSC(=N)N`, the Potency is reported as inconclusive: 23.1 µM [falling, single point].
In the case of `COC(=O)Nc1cccn(Cc2c(Cl)cccc2Cl)c1=O`, the Potency is reported as inconclusive: 11.2 µM [falling, partial curve, poor fit].
For `COc1ccc(N(Cc2ccccc2)S(=O)(=O)c2cc(C(=O)O)ccc2Cl)cc1`, the “activity change, negative = inhibition” value was inactive: 3.12%.
With `CC1CCCCN1C(=O)C1CCN(c2nc(-c3ccccc3)nc3c2CCC3)CC1` (stereo unspecified) the activity change, negative = inhibition was inconclusive: 1.73%.
In the case of `COc1ccc(-c2nnc(SCC(=O)NC3CCCC3)nc2-c2ccc(OC)c(OC)c2)cc1OC`, the Potency is reported as inconclusive: 0.501 µM [falling, full curve, poor fit].
For `Cc1ccccc1NC(=S)NNC(=O)c1ccncc1`, the activity change, negative = inhibition was inconclusive: -20.4%.
In the case of `CCOC(=O)c1nnc(-c2ccccc2)nc1Sc1ccccc1Cl`, the Potency is reported as inconclusive: 1.3 µM [rising, full curve, poor fit].
In the case of `Cc1ccc2oc(=O)c(/C=C(\O)c3ccccc3)nc2c1`, the Potency is reported as inconclusive: 15.8 µM [falling, partial curve].
For `O=C(NC(=S)Nc1nc2ccc(F)cc2s1)c1ccco1`, the Potency was inconclusive: 7.94 µM [rising, partial curve, poor fit].
With `CC1=NN2C(=N)/C(=C\c3ccc(SCc4ccccc4)o3)C(=O)N=C2S1` the “activity change, negative = inhibition” value was inactive: 11.7%.
For `CCC(O)c1cc2c(cc1NC(=O)c1cccs1)OCCO2` (stereo unspecified), the activity change, negative = inhibition was inconclusive: -14.3%.
With `Cc1cccc(NC(=O)c2ccc(CN3CCc4ccccc4C3)cc2)c1C` the “activity change, negative = inhibition” value was inactive: -1.07%.
With `CC(OC(=O)c1ccc2ncsc2c1)C(=O)Nc1ncc(Cl)cc1Cl` (stereo unspecified) the activity change, negative = inhibition was inconclusive: -22.9%.
With `Cc1ccc(C)c(NC(=O)CCC(=O)N/N=C/c2ccc[nH]2)c1` the “activity change, negative = inhibition” value was inactive: -0.142%.
For `Cc1cc(C)c2oc(C(=O)N3CCN(C)CC3)cc(=O)c2c1`, the activity change, negative = inhibition was inconclusive: 6.08%.
In the case of `COc1cc(/C=N\NC(=O)c2ccc(-c3ccccc3)cc2)ccc1OCC(N)=O`, the “activity change, negative = inhibition” value is reported as inactive: 1.5%.
In the case of `Cn1c(CC(=O)Nc2ccc(Cl)cc2)nnc1SCC(=O)N1CCOCC1`, the “activity change, negative = inhibition” value is reported as inactive: 2.09%.
In the case of `Cc1cc(Br)c(NC(=O)CCl)c(Br)c1`, the Potency is reported as inconclusive: 18.4 µM [falling, partial curve, poor fit].
With `Oc1ccc(/C=N/NC(=S)Nc2cccnc2)cc1` the Potency was inconclusive: 17.8 µM [falling, partial curve, poor fit].
With `CC(C)NC(=O)NC(=O)CN1c2cccc3cccc(c23)S1(=O)=O` the “activity change, negative = inhibition” value was inactive: -12.4%.
With `Nc1nc2ccccc2n1C(=O)c1ccccc1` the Potency was inconclusive: 35.5 µM [rising, single point].
With `CC(C)(C)c1cc(=O)n(-c2ccccc2)[nH]1` the Potency was inconclusive: 5.8 µM [falling, partial curve, poor fit].
In the case of `CC(Nc1ccc2c(c1)OCCO2)C(=O)Nc1ccc2c(c1)OCO2` (stereo unspecified), the Potency is reported as inconclusive: 2.82 µM [falling, full curve, poor fit].
In the case of `Cc1ccc(N2CC(NC(=O)c3ccc(S(=O)(=O)N4CCCC4)cc3)CC2=O)cc1C` (stereo unspecified), the “activity change, negative = inhibition” value is reported as inactive: -5.37%.
For `O=C(Nc1ccc2c(c1)OCO2)c1noc2c1CCCC2`, the Potency was inconclusive: 17.8 µM [falling, partial curve].
In the case of `CC(C)Cn1c(=O)c2ccccc2n2c(SCC(=O)N3c4ccccc4CC3C)nnc12` (stereo unspecified), the activity change, negative = inhibition is reported as inconclusive: 1.32%.
In the case of `COc1ccccc1N1CCN(CC(=O)Nc2nc(C)c(C(=O)N(C)C)s2)CC1`, the “activity change, negative = inhibition” value is reported as inactive: 0.186%.
For `Cc1ccc(NC(=O)C2(c3ccccc3)CC2(Cl)Cl)cc1C` (stereo unspecified), the “activity change, negative = inhibition” value was inactive: 21.1%.
In the case of `CCn1cc(C(=O)NCCCN2CCCC(C)C2)c(=O)c2cc(S(=O)(=O)N(C)C3CCCCC3)ccc21` (stereo unspecified), the Potency is reported as inconclusive: 12.6 µM [rising, partial curve, poor fit].
With `CCOC(=O)/C(C(N)=NCC(C)C)=C(/O)c1ccccc1` the activity change, negative = inhibition was inconclusive: 7.01%.
For `Fc1ccc(N2CCN(C3=Nc4cccc5cccc3c45)CC2)cc1`, the activity change, negative = inhibition was inconclusive: -15.4%.
In the case of `COc1ccc(-c2cn[nH]c2C)cc1`, the activity change, negative = inhibition is reported as inconclusive: -26.7%.
For `CC1=NN(C(N)=S)C(=O)C1N=Nc1cccc(Cl)c1C` (stereo unspecified), the activity change, negative = inhibition was inconclusive: 8.11%.
For `CC(=O)C(Sc1nn(C)c(=S)s1)C(=O)Nc1ccccc1` (stereo unspecified), the Potency was inconclusive: 35.5 µM [rising, single point].
In the case of `O=c1oc(CCO)cc2ccc(C#Cc3ccsc3)cc12`, the activity change, negative = inhibition is reported as inconclusive: 1.14%.
For `COc1cc(SC)ccc1C(=O)Nc1ccccc1C#N`, the activity change, negative = inhibition was inconclusive: 5.08%.
For `COc1cc(CCC(=O)Nc2ccc(Br)c(C(F)(F)F)c2)cc(OC)c1OC`, the “activity change, negative = inhibition” value was inactive: -0.208%.
For `CC1CCCN(C(=O)C2CCN(c3ncnc4c3nc3n4CCCCC3)CC2)C1` (stereo unspecified), the activity change, negative = inhibition was inconclusive: -2.71%.
With `CCNC(=O)CCn1nc(-c2ccc(C)cc2)c2ccccc2c1=O` the activity change, negative = inhibition was inconclusive: -11.2%.
In the case of `O=C(CCCSc1ccccc1)Nc1nc(-c2ccco2)c(-c2ccco2)s1`, the “activity change, negative = inhibition” value is reported as inactive: 15.2%.
In the case of `COc1cccc(C(=O)OCCN(C)C(C)(C)C)c1`, the Potency is reported as inconclusive: 32.6 µM [falling, single point].
With `CCC(CC)C(=O)Nc1ccncc1` the “activity change, negative = inhibition” value was inactive: 2.52%.
With `C1CCN(CCCNC2C3CC4CC(C3)CC2C4)C1` (stereo unspecified) the Potency was inconclusive: 29.1 µM [falling, single point].
In the case of `O=C(Cc1cccs1)N=Nc1c(O)[nH]c2ccc(Br)cc12`, the “activity change, negative = inhibition” value is reported as inactive: 6.48%.
In the case of `COc1ccc(-c2nn(C)c(=O)c3ccccc23)cc1NS(C)(=O)=O`, the activity change, negative = inhibition is reported as inconclusive: -18.9%.
For `CSc1nc2nc3c(cc2c(=O)n1-c1cccc(C)c1)COC(C)(C)C3`, the activity change, negative = inhibition was inconclusive: -12.3%.
For `Cc1ccc(S(=O)(=O)N2CCC(C(=O)N3CCC[C@H]3C(=O)NC3CCS(=O)(=O)C3)CC2)cc1` (stereo partly specified), the activity change, negative = inhibition was inconclusive: 14.6%.
In the case of `O=C(Cn1ncc2c3ccccc3n(Cc3ccccc3)c2c1=O)N1CCN(c2ncccn2)CC1`, the activity change, negative = inhibition is reported as inconclusive: 6.46%.
For `Cc1ccc(S(=O)(=O)CCC(=O)OCc2ccccc2)cc1`, the activity change, negative = inhibition was inconclusive: 1.46%.
With `O=C(Cc1ccc(N2CCNC2=O)cc1)N1CCCC(Nc2cccc(F)c2)C1` (stereo unspecified) the Potency was inconclusive: 11.2 µM [falling, partial curve].
For `Cc1ccc(C)c(C(=O)Nc2c(C(N)=O)oc3ccccc23)c1`, the Potency was inconclusive: 0.731 µM [activator, full curve, poor fit].
With `CCOc1ccc(C(=O)Nc2cccc(C)n2)cc1` the Potency was inconclusive: 12.6 µM [falling, partial curve, poor fit].
In the case of `O=C(O)c1c(CNCc2cccc(F)c2)c2ccccc2n1Cc1ccccc1`, the activity change, negative = inhibition is reported as inconclusive: -18.2%.
For `Cc1cccc2sc(NNC(=O)c3ccc(S(=O)(=O)N4CCCC(C)C4)cc3)nc12` (stereo unspecified), the “activity change, negative = inhibition” value was inactive: -5.22%.
In the case of `Cc1cc(-c2ccc(C)c(S(=O)(=O)NCC3CCN(Cc4ccc(F)cc4)CC3)c2)on1`, the “activity change, negative = inhibition” value is reported as inactive: 0.906%.
In the case of `CC1(C)Cc2c(sc(NC(=O)c3ccccc3)c2C(=O)O)CO1`, the activity change, negative = inhibition is reported as inconclusive: 433%.
For `CCOC(=O)C1CCCN(S(=O)(=O)c2ccc(OC)c3ccccc23)C1` (stereo unspecified), the Potency was inconclusive: 32.6 µM [falling, partial curve, poor fit].
With `CC(=O)NC(=O)c1ccc(-c2ccc(Cl)cc2)o1` the activity change, negative = inhibition was inconclusive: 10.4%.
For `CC(=O)NC(C)c1cc(Cl)c2cccnc2c1O` (stereo unspecified), the activity change, negative = inhibition was “inactive”.
In the case of `COCC(=O)Nc1sc2c(c1C(=O)OC)CCC(C)C2` (stereo unspecified), the Potency is reported as inconclusive: 29.1 µM [falling, single point].
In the case of `Cc1cccc(-n2ncc3c(N4CCC(C)CC4)ncnc32)c1`, the activity change, negative = inhibition is reported as inconclusive: -23.9%.
In the case of `COc1cccc(C(=O)OCC(=O)c2ccc(Br)s2)c1OC`, the activity change, negative = inhibition is reported as inconclusive: -2.15%.
For `Cc1cc(NC(=O)CSc2nc(=O)cc(N)n2-c2ccc(Cl)cc2)no1`, the activity change, negative = inhibition was inconclusive: 4.99%.
For `CCN(CC)CCCNC(=O)c1cc2c(=O)[nH]c3ccc(C)cc3c2s1`, the activity change, negative = inhibition was inconclusive: -8.82%.
For `N#C/C(=C/c1cccc(C(F)(F)F)c1)c1nc(CCN2C(=O)c3ccccc3C2=O)cs1`, the activity change, negative = inhibition was inconclusive: -2.48%.
In the case of `CCn1cc(C(=O)N[C@@H](C)C(=O)NCCCO)c(=O)c2cc3c(cc21)OCO3`, the activity change, negative = inhibition is reported as inconclusive: -6.97%.
In the case of `CCc1cc(=O)oc2cc(C)cc(OCC(=O)N3CCC(C(=O)NC(C)C)(c4ccccc4)CC3)c12`, the “activity change, negative = inhibition” value is reported as inactive: 5.51%.
With `CN(Cc1ccccc1)CC(O)COc1ccc(CNCc2ccc(Cl)s2)cc1` (stereo unspecified) the Potency was inconclusive: 7.08 µM [falling, full curve, poor fit].
For `c1nnnn1C12CC3CC(CC(C3)C1)C2`, the activity change, negative = inhibition was inconclusive: -9.17%.
For `O=C(NC(=S)N1CCCCC1)c1cccnc1`, the Potency was inconclusive: 1.78 µM [falling, partial curve, poor fit].
In the case of `CN(CCOc1ccccc1)CC(=O)Nc1ccc(S(=O)(=O)N2CCCC2)cc1`, the activity change, negative = inhibition is reported as inconclusive: 9.85%.
For `Cc1cc(Nc2cccc([N+](=O)[O-])c2)c2ccccc2n1`, the “activity change, negative = inhibition” value was inactive: 14.7%.
With `Cc1cc(C)n2nc(C(=O)OCC(=O)c3cc(C)n(CC4CCCO4)c3C)nc2n1` (stereo unspecified) the activity change, negative = inhibition was inconclusive: 6.41%.
With `Cc1ccccc1C(=O)N1CCC(C(=O)Nc2ccc(S(=O)(=O)N3CCCC3)cc2)CC1` the activity change, negative = inhibition was inconclusive: 8.67%.
With `COc1cc(OC)cc(C(=O)N[C@H](C(=O)OCC(=O)Nc2ccc(F)c(F)c2F)C(C)C)c1` the activity change, negative = inhibition was inconclusive: 10.5%.
In the case of `OCCO`, the “activity change, negative = inhibition” value is reported as inactive: -0.0236%.
With `CC(O)Cn1cnc2c1c(=O)n(C)c(=O)n2C` (stereo unspecified) the activity change, negative = inhibition was inconclusive: -1.6%.
